These are yes or no findings as the source states them, for the method shown. Some results given as binding are weak or reduced against the parent protein; the word gives no strength.
Columns and labels:
[1] = target: rat SEZ6 on RIN-m5F cells (rat); experiment: flow cytometry, RIN-m5F cells, 5 ug/mL antibody
[2] = target: human SEZ6 on HEK-293T cells (human) (UniProt Q53EL9); experiment: flow cytometry; format for human SEZ6 not detailed
[3] = target: human SEZ6 on NTX tumor cells (human) (UniProt Q53EL9); experiment: flow cytometry on LU64 NTX tumor cells co-stained for CD324; gray filled = isotype control of the bulk population
[4] = target: human SEZ6 on NTX tumor cells (human) (UniProt Q53EL9); experiment: flow cytometry, LU100 NTX tumor cells
[5] = target: mouse SEZ6 on Neuro2a cells (mouse) (UniProt Q7TSK2); experiment: flow cytometry, Neuro2a cells, 5 ug/mL antibody
[6] = target: SEZ6 N3 (aa 170-335) on yeast (human) (UniProt Q53EL9); experiment: yeast display, flow cytometry
[7] = target: SEZ6 Sushi Domain 4 (amino acids 750-813) on yeast (human) (UniProt Q53EL9); experiment: yeast display, flow cytometry
[8] = target: extracellular domain of cynomolgus SEZ6 on yeast (cynomolgus); experiment: flow cytometry, yeast displaying cynomolgus SEZ6 ECD, 5 ug/mL antibody

Amino acid sequences for entries named in this document (tags omitted). A change or cut given only in a name is not applied to a line headed by its entry.
UniProt Q53EL9: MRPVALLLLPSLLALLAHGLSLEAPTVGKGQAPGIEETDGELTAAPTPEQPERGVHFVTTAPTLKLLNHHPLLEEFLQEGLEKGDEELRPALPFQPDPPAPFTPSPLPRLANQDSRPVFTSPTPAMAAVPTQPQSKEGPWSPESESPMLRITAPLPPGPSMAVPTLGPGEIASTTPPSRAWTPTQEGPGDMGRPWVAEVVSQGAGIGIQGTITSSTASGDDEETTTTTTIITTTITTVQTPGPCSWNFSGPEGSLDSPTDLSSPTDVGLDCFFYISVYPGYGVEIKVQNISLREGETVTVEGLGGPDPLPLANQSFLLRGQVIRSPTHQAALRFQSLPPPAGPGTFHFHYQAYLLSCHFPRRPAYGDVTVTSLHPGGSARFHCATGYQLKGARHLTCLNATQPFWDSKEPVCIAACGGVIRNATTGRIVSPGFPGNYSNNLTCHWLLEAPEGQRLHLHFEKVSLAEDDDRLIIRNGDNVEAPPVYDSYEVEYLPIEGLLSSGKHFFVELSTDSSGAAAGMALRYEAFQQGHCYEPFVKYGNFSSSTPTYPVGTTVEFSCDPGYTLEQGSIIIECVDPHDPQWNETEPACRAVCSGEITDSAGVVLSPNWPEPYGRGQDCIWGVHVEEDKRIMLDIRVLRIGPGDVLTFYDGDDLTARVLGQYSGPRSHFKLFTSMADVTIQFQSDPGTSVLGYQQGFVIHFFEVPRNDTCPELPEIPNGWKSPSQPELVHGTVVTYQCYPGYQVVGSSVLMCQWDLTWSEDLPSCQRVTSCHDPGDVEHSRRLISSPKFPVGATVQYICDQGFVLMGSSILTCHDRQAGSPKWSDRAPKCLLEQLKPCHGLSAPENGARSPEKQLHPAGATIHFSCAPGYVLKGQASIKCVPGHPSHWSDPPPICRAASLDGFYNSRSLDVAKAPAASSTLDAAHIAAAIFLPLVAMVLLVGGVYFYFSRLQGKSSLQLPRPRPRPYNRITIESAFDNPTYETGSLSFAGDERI
UniProt Q7TSK2: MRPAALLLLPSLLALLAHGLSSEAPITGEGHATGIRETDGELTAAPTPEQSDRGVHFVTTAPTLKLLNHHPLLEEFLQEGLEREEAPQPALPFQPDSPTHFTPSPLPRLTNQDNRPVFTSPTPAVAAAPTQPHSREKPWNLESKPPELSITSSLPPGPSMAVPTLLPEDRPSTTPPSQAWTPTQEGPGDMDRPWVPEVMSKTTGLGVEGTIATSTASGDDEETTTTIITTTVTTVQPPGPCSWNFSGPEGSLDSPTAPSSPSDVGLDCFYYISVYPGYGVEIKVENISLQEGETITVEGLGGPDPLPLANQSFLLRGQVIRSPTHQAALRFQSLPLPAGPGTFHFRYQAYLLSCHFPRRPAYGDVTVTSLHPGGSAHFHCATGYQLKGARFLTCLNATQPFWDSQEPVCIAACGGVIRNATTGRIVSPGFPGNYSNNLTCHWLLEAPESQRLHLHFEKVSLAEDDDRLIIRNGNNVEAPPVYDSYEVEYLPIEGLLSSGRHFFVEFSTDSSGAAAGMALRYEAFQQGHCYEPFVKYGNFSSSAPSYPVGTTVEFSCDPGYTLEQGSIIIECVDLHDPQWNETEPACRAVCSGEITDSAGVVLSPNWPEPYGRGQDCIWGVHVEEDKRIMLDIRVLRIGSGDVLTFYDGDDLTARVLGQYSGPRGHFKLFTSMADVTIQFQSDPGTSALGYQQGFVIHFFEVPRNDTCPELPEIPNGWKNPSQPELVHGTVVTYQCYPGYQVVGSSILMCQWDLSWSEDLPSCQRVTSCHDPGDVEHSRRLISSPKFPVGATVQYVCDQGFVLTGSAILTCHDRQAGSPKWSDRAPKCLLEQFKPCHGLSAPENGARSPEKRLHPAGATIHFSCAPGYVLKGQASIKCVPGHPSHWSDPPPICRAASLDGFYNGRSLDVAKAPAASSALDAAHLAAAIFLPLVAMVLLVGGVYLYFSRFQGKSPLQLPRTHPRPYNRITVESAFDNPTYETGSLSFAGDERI

Measured: binding

B1: SC17.42 (antibody, V domains shown)
VH: DVKLVESGGGLVRPGGSLKLSCAASGFTFSRYTMSWVRQTPEKRLEWAATINSGGSNTYYPDSVKGRFTISRDNAKNTLFLQMSSLKSEDTAMYYCTNGNHWGQGTTLTVSS
VL: ENVLTQSPAIMSASPGEKVTMTCSASSSVNYMYWYQQKSSTSPKLWIYDTSKLTSGVPGRFSGSGSGNSYSLTISNMEAEDVATYYCFQGSGYPLTFGSGTKLEIK
binds: [1] | [2] | [3] | [4] | [5] | [6]

B2: SC17.166 (antibody, V domains shown)
VH: EVQLQQSGPELMKPGASVKMSCKASGYIFTDYNMHWVKQNQGKSLEWIGEVNPNTGGIGYNQKFKGKATLTVDKSSSTAYMDLRSLTSEDSAVYYCARDGNYCFDYWGQGTTLTVSS
VL: QIVLTQSPAIMSASPGEKVTMTCSASSSISYMHWYQQKSGTSPKRWIYDTSKLASGVPARFSGSGSGTSYSLTISNMEAEDAATYYCQQWSSTPPTFGGGTKLEIK
binds: [7]

B3: SC17.45 (antibody, V domains shown)
VH: QVQLQQPGSVLVRPGDSVKLSCKASGYTFTSYWMHWVKQSPGQGLEWIGEIHPHSGSTNYNEKFKGKATLTVDTSSSTAYVDLSSLTSEDSAVYYCVGGHYDYWGQGTTLTVSS
VL: ENVLTQSPAIMSASPGEKVTMTCSASSSVNYMYWYQQKSSTSPKLWIYDTSKLTSGVPGRFSGSGSGNSYSLTISNMEAEDVATYYCFQGSGYPLTFGSGTKLEIK
binds: [2] | [8]

From patent US20190022241A1
